Assay results: PubChem BioAssay AID445 (National Center for Advancing Translational Sciences (NCATS), 2006)
The other results are listed elsewhere or left out. These are further read-outs of the screen, such as a control signal, another cell line or another target. No call is given for them. Most of these compounds were active or inconclusive in the main read-out, so they are no random draw. Words in brackets tell the shape of the fitted curve; partial curves, single points and poor fits give uncertain potencies.

Assay: IkB Signaling
Settings: ABC-DLBCL IkBa-CBG/CBR dual luciferase ratio (green luciferase fused to IkBa over red control in OCI-Ly3 lymphoma cells), 4 h
In short: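 In this assay, an IκBα–CBG68 fusion accumulates when IKK-driven degradation is blocked; native CBR normalizes for cell number. OCI-Ly3 cells were treated 4 h with compound and doxycycline, then green and red light read after Chroma-Glo addition.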

[1] = measured here: control luc red channel unless noted
[2] = measured here: IkB-luc green channel
[3] = measured here: control luc red channel

## Cc1ccccc1S(=O)(=O)Cc1ccc(C(=O)NC2CCCCC2)o1
[1]
  AC50: 0.0251 µM [falling, full curve, poor fit]

## Cc1ccc(OC(=O)c2cc(-c3ccc4c(c3)OCCO4)on2)cc1C
[1]
  AC50: 15.8 µM [falling, partial curve]

## COc1ccc(OC)c2c(=S)c3ccccc3[nH]c12
[1]
  AC50: 2 µM [falling, full curve]

## CCOc1ccc(NC(=O)CSc2nnc3scc(-c4ccc(Cl)cc4)n23)cc1
[1]
  AC50: 39.8 µM [falling, single point]

## CCOc1cccc2cc(-c3nc4ccc(C(=O)O)cc4[nH]3)c(=O)oc12
[1]
  AC50: 0.126 µM [falling, full curve]

## COc1ccc(C)cc1S(=O)(=O)N1CCN(c2cccc(Cl)c2)CC1
[1]
  AC50: 25.1 µM [falling, single point]

## Cc1c(O)ccc2c3c(c(=O)oc12)CCC(C)C3 (stereo not given)
[1]
  AC50: 25.1 µM [falling, partial curve]

## COc1ccc(Nc2ncc(C(=O)N3CCN(c4cccc(Cl)c4)CC3)c3ccccc23)cc1
[1]
  AC50: 7.94 µM [falling, full curve]

## Cc1ccc(C)c(-n2c(CCC(=O)O)ccc2-c2ccc(Cl)cc2)c1
[1]
  AC50: 3.98 µM [falling, full curve]

## COCCn1ccc2c(OCC(=O)Nc3cccc(OC)c3)cccc2c1=O
[1]
  AC50: 12.6 µM [falling, partial curve]

## Cc1ccc(Cl)cc1N1CCN(C(=O)COc2ccc(S(=O)(=O)NC(C)C)cc2)CC1
[1]
  AC50: 12.6 µM [falling, partial curve]

## COc1ccc(CNC(=O)c2c(O)nc3cc(C)ccn3c2=O)cc1
[1]
  AC50: 25.1 µM [falling, single point]

## CCc1ccc2ncc3c(-c4ccc(F)cc4)nn(CC(=O)NCc4ccccc4)c3c2c1
[1]
  AC50: 3.16 µM [falling, partial curve]

## Cc1ccc(C(C)C)c(OCC(=O)Nc2ccc(C(=O)OC3CCCCC3)cc2)c1
[1]
  AC50: 0.1 µM [rising, full curve]

## Cc1ccc(/C=C/c2onc(C)c2S(=O)(=O)N2CCC(C(=O)NCc3ccc(C)o3)CC2)cc1
[1]
  AC50: 39.8 µM [rising, partial curve]

## COc1cccc(CNC(=O)Cc2ccc(NC(=O)N3CCCCc4ccccc43)cc2)c1OC
[1]
  AC50: 39.8 µM [falling, single point]

## COc1cc(NC(=O)CCc2nc(-c3cccs3)no2)cc(OC)c1OC
[1]
  AC50: 39.8 µM [falling, single point]

## O=C(c1ccccc1)c1nc[nH]c1C(=O)Nc1ccccc1
[1]
  AC50: 15.8 µM [falling, partial curve]

## c1coc(-c2nnc(SCc3nc4ccccc4[nH]3)o2)c1
[1]
  AC50: 25.1 µM [falling, partial curve]

## Cc1ccc(C(=O)CC2(O)C(=O)N(CCc3ccccc3)c3ccc(Cl)cc32)cc1 (stereo not given)
[1]
  AC50: 15.8 µM [falling, partial curve]

## CC(C)OC(=O)c1cccnc1SCc1cc(=O)n2ccccc2n1
[1]
  AC50: 12.6 µM [falling, partial curve]

## c1ccc(Sc2nc(N3CCCCC3)nc(N3CCCCC3)n2)nc1
[1]
  AC50: 15.8 µM [falling, partial curve]

## CCOc1ccc(-c2nn(CC(=O)NC3CCCCC3)c3c2cnc2ccc(C)cc23)cc1
[1]
  AC50: 3.98 µM [falling, partial curve]

## Cc1ccc(Cl)cc1N1CCN(C(=O)Cn2ccc3ccccc3c2=O)CC1
[1]
  AC50: 10 µM [falling, partial curve]

## COc1cc(-c2noc(-c3ccc(NCc4ccccc4)c([N+](=O)[O-])c3)n2)cc(OC)c1OC
[1]
  AC50: 6.31 µM [falling, partial curve]

## Cc1ccc(C(=O)NCCc2ccc(Cl)cc2)cc1-n1c(C)nc2cccnc21
[1]
  AC50: 10 µM [falling, partial curve]

## COc1ccc(NC(=O)Cn2nnc3sc4c(c3c2=O)CCC(C)C4)c(OC)c1 (stereo not given)
[1]
  AC50: 20 µM [falling, single point]

## C/C(=C1/SC(=S)N(CCC(=O)O)C1=O)c1ccc(O)cc1
[1]
  AC50: 2.51 µM [falling, full curve]

## CCn1c(=O)c2cc(C(=O)N(CCN(C)C)Cc3ccccc3)sc2c2ccccc21
[1]
  AC50: 39.8 µM [falling, single point]

## Cc1cc(C)cc(NC(=O)CSc2nc3c(oc4ccccc43)c(=O)n2-c2ccccc2F)c1
[1]
  AC50: 25.1 µM [falling, single point]

## COc1ccc2cc3cc(C(=O)NCc4ccc(C)cc4)oc3nc2c1
[1]
  AC50: 0.00501 µM [falling, full curve, poor fit]

## COc1ccc(OC)c(CCNC(=O)c2ccc3c(c2)N(Cc2ccc(C)cc2)CCS3)c1
[1]
  AC50: 15.8 µM [falling, partial curve]

## COc1ccc(F)cc1S(=O)(=O)NCCc1c(C)[nH]c2c(Cl)cccc12
[1]
  AC50: 0.794 µM [rising, partial curve]

## Cc1c(C(=O)CN2CCOCC2)[nH]c2ccccc12
[1]
  AC50: 20 µM [falling, partial curve]

## CCc1cccc(OCC(=O)Nc2ccc(S(=O)(=O)Nc3cc(C)nc(C)n3)cc2)c1
[1]
  AC50: 20 µM [falling, single point]

## Cc1ccc(-c2nnc(Nc3ccc(O)cc3)c3ccccc23)cc1S(=O)(=O)N1CCN(C)CC1
[1]
  AC50: 15.8 µM [falling, partial curve]

## COc1ccc(Nc2cc(C(=O)NCCc3ccc(C)cc3)c3ccccc3n2)c(OC)c1
[1]
  AC50: 3.16 µM [falling, full curve]

## O=c1[nH]n(CC2COC3(CCCCC3)O2)c(=O)c2ccccc12 (stereo not given)
[1]
  AC50: 631 nM [rising, full curve] [measured here: IkB-luc green channel]

## COc1ccc(C(=O)SC2=NCCS2)cc1OC
[1]
  AC50: 31.6 µM [falling, partial curve]

## CCCCOc1ccc(C(=O)Nc2nnc3n2CCS3)cc1
[1]
  AC50: 39.8 µM [falling, single point]

## O=C(Nc1cccc(C(=O)OCc2cc(=O)n3nc(C4CC4)sc3n2)c1)c1ccccc1
[2]
  AC50: 3.16 µM [rising, single point]
[3]
  AC50: 0.794 µM [falling, full curve]

## Cc1cc(C)cc(OC(C)C(=O)Nc2nonc2-c2ccc(Br)cc2)c1 (stereo not given)
[1]
  AC50: 31.6 µM [falling, single point]

## Cc1ccc(Cl)cc1N(C)C(=O)Cn1nc(Cc2cccnc2)c2ccccc2c1=O
[1]
  AC50: 39.8 µM [falling, single point]

## Nc1c(-c2nc(-c3cccs3)no2)nnn1-c1ccccc1Cl
[1]
  AC50: 0.2 µM [rising, full curve]

## CCOc1cccc(CNC(=O)c2ccc(N3CCCC3)c(NC(=O)NCc3ccc(F)cc3)c2)c1
[1]
  AC50: 7.94 µM [falling, full curve, poor fit]

## CCN(CC)CCOC(=O)c1ccc(NC(=O)Cn2ncc3c([nH]c4ccc(C)cc43)c2=O)cc1
[1]
  AC50: 12.6 µM [falling, partial curve]

## Cc1ccc(-n2nc(C)c(C(=O)NCCCN3CCN(c4ccc(F)cc4)CC3)c2-n2cccc2)cc1
[1]
  AC50: 7.94 µM [falling, partial curve]

## Cc1ccnc(NC(=O)C2CCC(CNc3c(N4CCCC4)c(=O)c3=O)CC2)c1 (stereo not given)
[2]
  AC50: 6.31 µM [falling, partial curve]
[3]
  AC50: 7.94 µM [falling, full curve, poor fit]

## Cc1ccccc1CS(=O)(=O)CC1Nc2ccc(C(=O)NCc3ccc(Cl)cc3)cc2NC1=O (stereo not given)
[1]
  AC50: 10 µM [falling, partial curve]

## CCN(CC)c1ccc2oc(=O)c(C)nc2c1
[2]
  AC50: 3.16 µM [rising, partial curve]
[3]
  AC50: 15.8 µM [falling, partial curve]

## Cc1nc2ccccc2c2oc(C(=O)NCc3ccccn3)cc12
[1]
  AC50: 31.6 µM [falling, single point]

## CCOc1cc(C(=O)N2CC(=O)Nc3ccc(C)cc3C2c2ccccc2)cc(OCC)c1OCC (stereo not given)
[1]
  AC50: 5.01 µM [falling, partial curve]

## CCc1ccc(CN(Cc2ccco2)C(=O)c2ccc(OC)cc2)cc1
[1]
  AC50: 31.6 µM [falling, single point]

## CCc1ccc(CNC(=O)CCC(=O)N2Cc3cccc(OC)c3Oc3ncccc32)cc1
[1]
  AC50: 39.8 µM [falling, single point]

## Cc1cc2ncn(-c3ncnc4sc(C)c(C)c34)c2cc1C
[1]
  AC50: 39.8 µM [falling, partial curve]

## O=C(C1CCN(S(=O)(=O)c2ccc(Br)s2)CC1)N1CCN(c2cccc(Cl)c2)CC1
[1]
  AC50: 12.6 µM [falling, partial curve]

## CCOc1ccc(CCNC(=O)c2sc3nc4n(c(=O)c3c2C)CCCC4)cc1OCC
[1]
  AC50: 15.8 µM [falling, partial curve]

## CCOC(=O)c1ccc(NC(=O)CCn2c(=O)c3cccn3c3ccccc32)cc1
[1]
  AC50: 31.6 µM [falling, single point]

## Cc1ccc2[nH]c(CSc3nnc(NC(=O)COc4ccccc4)s3)cc(=O)c2c1
[1]
  AC50: 15.8 µM [falling, partial curve]

## COc1ccc(-n2c(SCC(=O)Nc3ccc(Cl)c(C)c3)nc3n[nH]c(C)c3c2=N)cc1
[1]
  AC50: 5.01 µM [falling, full curve]

## CCOC(=O)c1c(NC(=O)c2ccc(S(=O)(=O)N3CCC(C)CC3)cc2)sc2c1CCN(C)C2
[1]
  AC50: 39.8 µM [falling, single point]

## CC1(C)Cc2ccccc2-c2nnc(SCC(=O)Nc3ccc4c(c3)OCO4)n21
[1]
  AC50: 12.6 µM [falling, partial curve]
